Results are given in words; binding and its absence hold for the method and conditions named. In cells and extracts the contact can be indirect. Some results given as binding are weak or reduced against the parent protein; the word gives no strength. For part of these data: Where a sequence is shown, tags or fusion partners need not be part of it. Each block holds one molecule with its values, some of them ahead of it.
What was measured:
[1] = molecular target: LHR-Rluc8 (luteinising hormone receptor, C-terminally tagged with Renilla luciferase 8) (human) (UniProt P22888); assay: FRET or BRET; ligand-induced BRET between LHR-Rluc8 (donor) and Venus-tagged Gα (acceptor) in HEK 293 cells, also in HEK 293 cells stably expressing FSHR (signal decreased there); cells in PBS, ~200,000 cells/well, coelenterazine h; basal BRET 1 min, then LH 100 nM for 1 min
[2] = molecular target: LHR, BRET-tagged, as used for receptor-receptor BRET (Supplementary Fig. S5) (human) (UniProt P22888); assay: FRET or BRET; constitutive receptor-receptor association; net BRET (basal ratio of the Rluc8-tagged receptor alone subtracted); shown in Supplementary Fig. S5

By UniProt entry, the sequences of proteins in these tests, tags left out. Residues count along the entry.
UniProt P22888, residues 27-699: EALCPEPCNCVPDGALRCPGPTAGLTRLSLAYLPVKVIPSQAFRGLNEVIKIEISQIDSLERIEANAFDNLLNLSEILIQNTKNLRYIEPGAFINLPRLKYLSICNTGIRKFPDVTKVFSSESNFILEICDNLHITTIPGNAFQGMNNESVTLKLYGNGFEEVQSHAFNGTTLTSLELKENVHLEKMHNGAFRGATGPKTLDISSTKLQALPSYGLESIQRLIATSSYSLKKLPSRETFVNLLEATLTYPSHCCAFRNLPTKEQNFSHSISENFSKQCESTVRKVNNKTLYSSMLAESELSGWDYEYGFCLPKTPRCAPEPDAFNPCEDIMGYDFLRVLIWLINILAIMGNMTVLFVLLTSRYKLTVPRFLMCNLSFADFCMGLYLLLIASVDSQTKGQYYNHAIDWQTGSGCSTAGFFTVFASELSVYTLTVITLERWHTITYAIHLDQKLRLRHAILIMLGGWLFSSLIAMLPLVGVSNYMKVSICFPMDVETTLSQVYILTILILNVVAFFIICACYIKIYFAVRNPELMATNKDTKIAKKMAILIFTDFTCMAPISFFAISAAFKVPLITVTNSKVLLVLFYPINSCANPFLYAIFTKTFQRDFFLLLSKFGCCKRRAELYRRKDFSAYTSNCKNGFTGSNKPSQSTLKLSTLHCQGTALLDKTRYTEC
UniProt P50148: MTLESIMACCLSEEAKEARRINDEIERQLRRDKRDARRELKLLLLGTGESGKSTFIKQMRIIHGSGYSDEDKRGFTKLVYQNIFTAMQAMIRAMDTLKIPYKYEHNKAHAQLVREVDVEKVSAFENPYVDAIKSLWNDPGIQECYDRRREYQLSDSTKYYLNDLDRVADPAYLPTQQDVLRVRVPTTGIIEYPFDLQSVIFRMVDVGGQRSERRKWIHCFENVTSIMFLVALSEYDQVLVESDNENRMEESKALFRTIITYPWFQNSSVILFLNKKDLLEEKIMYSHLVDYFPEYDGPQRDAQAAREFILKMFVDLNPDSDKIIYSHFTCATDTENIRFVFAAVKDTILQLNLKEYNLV
UniProt P63092: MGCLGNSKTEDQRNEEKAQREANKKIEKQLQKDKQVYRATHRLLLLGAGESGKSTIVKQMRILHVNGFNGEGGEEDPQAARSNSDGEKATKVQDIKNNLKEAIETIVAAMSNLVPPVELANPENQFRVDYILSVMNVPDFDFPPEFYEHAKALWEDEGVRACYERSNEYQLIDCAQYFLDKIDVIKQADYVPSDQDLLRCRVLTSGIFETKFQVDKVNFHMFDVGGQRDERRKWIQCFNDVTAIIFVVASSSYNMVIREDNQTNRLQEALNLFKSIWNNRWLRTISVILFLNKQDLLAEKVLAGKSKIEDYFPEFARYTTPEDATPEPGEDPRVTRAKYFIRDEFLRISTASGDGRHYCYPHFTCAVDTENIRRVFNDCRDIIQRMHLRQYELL

binding [1]: binds
Molecule: Gαq-Venus (mVenus-tagged Gαq) (from UniProt P50148 1-359)

binding [1]: binds
Molecule: Gαs mVenus-tagged construct (from UniProt P63092 1-394)

binding [2]: binds
B1: FSHR, BRET-tagged, as used for receptor-receptor BRET (Supplementary Fig. S5) (receptor, UniProt P23945 18-695)
chain: CHHRICHCSNRVFLCQESKVTEIPSDLPRNAIELRFVLTKLRVIQKGAFSGFGDLEKIEISQNDVLEVIEADVFSNLPKLHEIRIEKANNLLYINPEAFQNLPNLQYLLISNTGIKHLPDVHKIHSLQKVLLDIQDNINIHTIERNSFVGLSFESVILWLNKNGIQEIHNCAFNGTQLDELNLSDNNNLEELPNDVFHGASGPVILDISRTRIHSLPSYGLENLKKLRARSTYNLKKLPTLEKLVALMEASLTYPSHCCAFANWRRQISELHPICNKSILRQEVDYMTQARGQRSSLAEDNESSYSRGFDMTYTEFDYDLCNEVVDVTCSPKPDAFNPCEDIMGYNILRVLIWFISILAITGNIIVLVILTTSQYKLTVPRFLMCNLAFADLCIGIYLLLIASVDIHTKSQYHNYAIDWQTGAGCDAAGFFTVFASELSVYTLTAITLERWHTITHAMQLDCKVQLRHAASVMVMGWIFAFAAALFPIFGISSYMKVSICLPMDIDSPLSQLYVMSLLVLNVLAFVVICGCYIHIYLTVRNPNIVSSSSDTRIAKRMAMLIFTDFLCMAPISFFAISASLKVPLITVSKAKILLVLFHPINSCANPFLYAIFTKNFRRDFFILLSKCGCYEMQAQIYRTETSSTVHNTHPRNGHCSSAPRVTSGSTYILVPLSHLAQN

From paper PMC5797151
